Columns and labels:
[1] = assay type: in vivo, rat (male Wistar); settings: in the presence of phenylephrine
[2] = coiontophoresis with norepinephrine; up to a depth of 3 mm; cited from earlier work
[3] = presence of phenylephrine, subcutaneous administration in rats; cited from earlier work

CCN(CC)CC(=O)Nc1c(C)cccc1C [Lidocaine]
Concentration in plasma and contralateral tissues [1]: decreased | Concentration in tissues below the application area ([1]; FIGS. 3 & 4): increased | Local concentrations of lidocaine in the skin [2]: increased local concentrations | Plasma levels of lidocaine [3]: decrease in the plasma levels

Source: patent US5750141A, “Administration of vaso-active agent and therapeutic agent” (The University of Queensland, priority 1993, dated 1998)
